Laboratory results: PubChem BioAssay AID540276 (National Center for Advancing Translational Sciences (NCATS), 2011)
Out of some 300,000 compounds screened, about 5,400 (1.8%) were called active. The inconclusive results got no clear call from the source; some entries with a clear call stand among them for comparison. The call rests on the fitted dose curve; tested in HEK293 cells. Potencies beside an inconclusive call are fits to weak or partial responses and may not hold up.

test: qHTS for inhibitors of binding or entry into cells for Marburg Virus; details: Marburg virus pseudotyped entry inhibition, cell reporter; series mostly up to 37.8 µM
Potency means the concentration at half of the fitted maximal effect.

Compound | Potency
CCn1nc(C)c(CN2CCC(n3nccc3NC(=O)CCCc3ccccc3)CC2)c1C | inconclusive: 11.2 µM [inhibitor, partial curve, poor fit]
COc1ccc(CCNC(=O)COC(=O)CCC(=O)c2cccs2)cc1OC | inconclusive: 0.631 µM [inhibitor, full curve, poor fit]
COc1ccccc1C1c2c(-c3ccc(Cl)cc3)n[nH]c2C(=O)N1c1ccc(C)cc1 (centres undefined) | inconclusive: 10 µM [inhibitor, partial curve, poor fit]
CSc1ncccc1C(=O)OCC(=O)c1cccs1 | inconclusive: 7.08 µM [inhibitor, full curve, poor fit]
COc1ccc2c(C)nc(Nc3nc(C)c(C)c(=O)[nH]3)nc2c1 | inconclusive: 0.291 µM [inhibitor, full curve, poor fit]
O=C(NC1CC1)c1sc2cc([N+](=O)[O-])ccc2c1Cl | inactive
COc1cc(C(=O)NCC(c2cccs2)N(C)C)cc(Cl)c1OC(C)C (centres undefined) | inactive
O=C(c1ccc2c(=O)n(Cc3ccccc3Cl)c(=S)[nH]c2c1)N1CCOCC1 | inconclusive: 8.91 µM [inhibitor, partial curve, poor fit]
CCOc1ccccc1N1CC(C(=O)Nc2ccccc2N2CCOCC2)CC1=O (centres undefined) | inactive
N#Cc1nc(-c2ccc(OCc3ccccc3)cc2)oc1NCc1ccco1 | inconclusive: 4.47 µM [activator, partial curve, poor fit]
O=S(=O)(NCc1cccnc1)c1ccc2c(c1)OCCO2 | inactive
O=C(NCCCn1ccnc1)c1ccc(Br)o1 | inactive
C=CCNC(=S)NNC(=O)c1csc(C)c1CC | inconclusive: 1.16 µM [activator, single point]
CCCCCn1c(=O)[nH]c2cc(C(=O)Nc3ccc(F)c(F)c3)ccc2c1=O | inactive
COc1ccc(C(=O)Nc2nc(CC(=O)NCCc3ccccc3OC)cs2)cc1 | inconclusive: 4.47 µM [inhibitor, full curve]
N#Cc1ccc(-c2cccs2)nc1SCC(=O)Nc1cccc(C(F)(F)F)c1 | inconclusive: 6.31 µM [inhibitor, full curve, poor fit]
COc1ccc(/C=N/Nc2ncc(Br)cn2)c(OC)c1 | inconclusive: 4.11 µM [activator, single point]
O=C(CCCC(=O)NCc1ccccc1)NCc1ccccc1 | inactive
Cc1cc(NC(=O)CSc2nc3cc(C(=O)NCCCOC(C)C)ccc3c(=O)n2Cc2ccco2)no1 | inconclusive: 2.82 µM [activator, full curve, poor fit]

Look-ups from the list.
Potency, COc1ccc2c(C)nc(Nc3nc(C)c(C)c(=O)[nH]3)nc2c1 is entered as inconclusive: 0.291 µM [inhibitor, full curve, poor fit]
Potency, COc1ccc(CCNC(=O)COC(=O)CCC(=O)c2cccs2)cc1OC is entered as inconclusive: 0.631 µM [inhibitor, full curve, poor fit]
